# Measured values: PubChem BioAssay AID1671190 (National Center for Advancing Translational Sciences (NCATS), 2021)
# The chains behind the UniProt entries cited, without tags or fusion partners. Where a name states a change or a piece, a line headed by the entry shows the natural chain unless it says otherwise.
# UniProt P18054: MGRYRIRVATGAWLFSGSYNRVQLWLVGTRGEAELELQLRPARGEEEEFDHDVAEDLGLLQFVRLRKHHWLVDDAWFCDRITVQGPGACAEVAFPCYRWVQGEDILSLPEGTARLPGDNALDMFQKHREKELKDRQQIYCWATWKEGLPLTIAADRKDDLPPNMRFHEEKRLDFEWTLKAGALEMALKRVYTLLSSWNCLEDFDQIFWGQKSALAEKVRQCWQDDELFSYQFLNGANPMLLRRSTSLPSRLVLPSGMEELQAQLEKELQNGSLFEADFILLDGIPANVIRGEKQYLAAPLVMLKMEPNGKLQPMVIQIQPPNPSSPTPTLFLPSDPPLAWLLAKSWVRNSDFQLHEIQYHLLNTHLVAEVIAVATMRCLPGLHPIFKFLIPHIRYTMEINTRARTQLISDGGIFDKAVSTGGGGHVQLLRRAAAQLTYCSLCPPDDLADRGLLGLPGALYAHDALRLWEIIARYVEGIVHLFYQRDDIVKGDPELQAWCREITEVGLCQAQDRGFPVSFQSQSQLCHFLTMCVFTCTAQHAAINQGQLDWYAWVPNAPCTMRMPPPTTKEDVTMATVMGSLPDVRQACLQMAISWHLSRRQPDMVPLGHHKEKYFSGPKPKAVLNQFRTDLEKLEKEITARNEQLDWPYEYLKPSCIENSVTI
# Screen size: about 580,000 compounds; about 6,100 (1.1%) were called active. This list was built around the results that the source calls inconclusive (neither active nor inactive); the mix of calls is not that of the screen. Calls follow the shape of the dose curve; as a rule, active = well fitted inhibition curve with a large enough effect; inconclusive = small, poorly fitted or top-dose-only effect, or another doubt; inactive = no such curve, though single readings can be large or run the other way. Potencies beside an inconclusive call are fits to weak or partial responses and may not hold up.
# Biological target: Polyunsaturated fatty acid lipoxygenase ALOX12 (Homo sapiens) (UniProt P18054)
# Experiment: Primary qHTS assay for inhibitors of human arachidonate 12S-lipoxygenase (ALOX12): Round 2
# Conditions: purified 12hLO, xylenol orange hydroperoxide absorbance; activity change, negative = inhibition: at 108 µM (top of the series) unless noted
# Method in brief: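 Purified human 12hLO (150 nM final) in 25 mM Hepes, 0.01% Triton X-100, pH 7.0 was preincubated 15 min at room temperature with compound. Then 40 uM arachidonic acid was added, 30 min. Hydroperoxide was read by Fe-XO absorbance ratio 573/405 nm.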
# % is scaled to controls: 0 for no effect and ±100 for the full control effect; potency is read from the fitted curve at half-maximal effect.
SMILES,Potency,"activity change, negative = inhibition"
O=C(c1cc(F)cc(F)c1)N1CC2CC(C1)[C@H]1CCCC(=O)N1C2 (stereo not given in full),"inconclusive: 79.4 µM [inhibitor, single point]",–
CCOc1ccc(CC(=O)C2C(=O)CC(C)(C)CC2=O)cc1OCC,"inconclusive: 2.51 µM [inhibitor, full curve]",–
COc1cc(-c2cc(C(=O)O)c3ccccc3n2)cc(OC)c1OC,–,inactive: -30%
O=C(c1ccoc1)N1CCCN(CCc2ccccc2)c2ccccc21,"inconclusive: 28.2 µM [inhibitor, partial curve]",–
Cc1n[nH]c(C)c1CCOc1ccc(C(C)C)cc1,"inconclusive: 35.5 µM [inhibitor, partial curve, poor fit]",–
OC1CC(c2cc(N3CCN(c4nsc5ccccc45)CC3)ncn2)C1 (stereo not given),–,inactive: 36.3%
CC(OC(=O)CCOc1ccccc1)C(=O)Nc1ccc(S(N)(=O)=O)cc1 (stereo not given),–,inactive: -0.167%
CCCCCCN1C[C@H](n2cc(-c3ccc(F)cc3)nn2)[C@@H](O)C[C@@H]1c1ccc(C)cc1,"inconclusive: 39.8 µM [inhibitor, partial curve, poor fit]",–
O=C(OCC(=O)c1ccco1)c1ccc2ncsc2c1,"inconclusive: 126 µM [inhibitor, partial curve, poor fit]",–
CCOCCCNC(=O)C1CCN(Cc2cccc(OCc3ccccc3)c2)CC1,"inconclusive: 0.447 µM [inhibitor, full curve, poor fit]",–
CCN(CC)C(=O)c1ccc(-c2ccccc2)cc1,–,inactive: -0.185%
CCN1CCN(c2oc(/C=C/c3ccccc3OC)nc2C#N)CC1,inactive,–
Oc1ccc(Cl)cc1C=NCc1ccccc1C(F)(F)F,"inconclusive: 44.7 µM [inhibitor, partial curve, poor fit]",–
COC(=O)c1ccc(C(=O)NCC2CCC2)cc1,–,inactive: 19.6%
CNc1ccc(Br)cc(C(=O)/C=C/c2ccc3c(c2)OCO3)c1=O,"inconclusive: 10 µM [inhibitor, full curve]",–
NC1=NC(=O)/C(=C\c2ccc(O)c([N+](=O)[O-])c2)S1,–,inactive: -9.64%
COc1cccc(NC(=O)[C@@H]2C[C@H](c3ccc(F)cc3)N(Cc3csc(C)n3)C2)c1,"inconclusive: 56.2 µM [inhibitor, single point]",–
O=C(NC(=S)Nc1ccc(Cl)c(C(=O)O)c1)c1cncc(Br)c1,"inconclusive: 44.7 µM [inhibitor, partial curve, poor fit]",–
COc1cccc(CNCC(=O)N2C(C)CCCC2C)c1 (stereo not given),"inconclusive: 0.562 µM [inhibitor, full curve, poor fit]",–
COc1ccc(/C=C2\OC(=S)N(C)C2=O)cc1,–,inactive: -11.2%

# 2 entries from above, with bars between the fields:
SMILES | Potency | activity change, negative = inhibition
CCOCCCNC(=O)C1CCN(Cc2cccc(OCc3ccccc3)c2)CC1 | inconclusive: 0.447 µM [inhibitor, full curve, poor fit] | –
CCN(CC)C(=O)c1ccc(-c2ccccc2)cc1 | – | inactive: -0.185%
